In PMC11737055:
No constants are given. Whether binding was seen depends on the method and setting. In cells and extracts the contact can be indirect. Some results given as binding are weak or reduced against the parent protein; the word gives no strength.

The chains behind the UniProt entries cited, without tags or fusion partners.
UniProt Q60598: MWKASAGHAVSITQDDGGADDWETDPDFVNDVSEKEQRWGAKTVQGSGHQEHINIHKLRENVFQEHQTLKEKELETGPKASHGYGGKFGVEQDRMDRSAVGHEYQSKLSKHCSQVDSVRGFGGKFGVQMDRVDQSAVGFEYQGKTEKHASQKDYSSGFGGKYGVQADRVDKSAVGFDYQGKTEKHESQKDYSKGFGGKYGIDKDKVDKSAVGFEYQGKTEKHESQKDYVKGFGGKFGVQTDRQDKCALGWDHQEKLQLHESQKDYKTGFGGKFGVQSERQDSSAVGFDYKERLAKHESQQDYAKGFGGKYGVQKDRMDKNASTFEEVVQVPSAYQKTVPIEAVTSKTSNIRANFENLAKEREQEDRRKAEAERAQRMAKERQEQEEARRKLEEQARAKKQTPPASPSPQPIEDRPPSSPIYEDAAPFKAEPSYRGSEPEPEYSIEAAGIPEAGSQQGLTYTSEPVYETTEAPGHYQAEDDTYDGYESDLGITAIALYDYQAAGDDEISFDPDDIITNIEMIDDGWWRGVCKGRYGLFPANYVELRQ

Molecular target: cortactin, endogenous (mouse (endogenous in primary hippocampal neurons)) (UniProt Q60598)
Assay: co-IP; synaptosome extracts of DIV14 mouse primary hippocampal neurons immunoprecipitated with anti-cortactin, Western blot; neurons under mock, DHPG-LTD, DHPG-LTD + ionomycin or DHPG-LTD + EGTA; also FMRP depletion (Supplementary Fig. S6D) and CK2 inhibition (data not shown)

binding: binds
B1: drebrin, endogenous (protein, UniProt Q9QXS6 1-706)
chain: MAGVSFSGHRLELLAAYEEVIREESAADWALYTYEDGSDDLKLAASGEGGLQELSGHFENQKVMYGFCSVKDSQAALPKYVLINWVGEDVPDARKCACASHVAKVAEFFQGVDVIVNASSVEDIDAGAIGQRLSNGLARLSSPVLHRLRLREDENAEPVGTTYQKTDAAVEMKRINREQFWEQAKKEEELRKEEERKKALDARLRFEQERMEQERQEQEERERRYREREQQIEEHRRKQQSLEAEEAKRRLKEQSIFGDQRDEEEESQMKKSESEVEEAAAIIAQRPDNPREFFRQQERVASASGGSCDAPAPAPFNHRPGRPYCPFIKASDSGPSSSSSSSSSPPRTPFPYITCHRTPNLSSSLPCSHLDSHRRMAPTPIPTRSPSDSSTASTPIAEQIERALDEVTSSQPPPPPPPPPPTQEAQETTPSLDEELSKEAKVTAAPEVWAGCAAEPPQAQEPPLLQSSPLEDSMCTESPEQAALAAPAEPAASVTSVADVHAADTIETTTATTDTTIANNVTPAAASLIDLWPGNGEEASTLQAEPRVPTPPSGAEASLAEVPLLNEAAQEPLPPVGEGCANLLNFDELPEPPATFCDPEEEVGETLAASQVLTMPSALEEVDQVLEQELEPEPHLLTNGETTQKEGTQASEGYFSQSQEEEFAQSEEPCAKVPPPVFYNKPPEIDITCWDADPVPEEEEGFEGGD
